From patent US20080025968A1
These are yes or no findings as the source states them, for the method shown. Binding seen in cells or lysates may run through a third protein. Some binding calls cover weakened binding; strength is not graded here. Sequences can lack the tags named with a protein.

Sequences of proteins named here, by UniProt entry; tags and fusion partners are left off. A change or cut given only in a name is not applied to a line headed by its entry.
UniProt Q99558: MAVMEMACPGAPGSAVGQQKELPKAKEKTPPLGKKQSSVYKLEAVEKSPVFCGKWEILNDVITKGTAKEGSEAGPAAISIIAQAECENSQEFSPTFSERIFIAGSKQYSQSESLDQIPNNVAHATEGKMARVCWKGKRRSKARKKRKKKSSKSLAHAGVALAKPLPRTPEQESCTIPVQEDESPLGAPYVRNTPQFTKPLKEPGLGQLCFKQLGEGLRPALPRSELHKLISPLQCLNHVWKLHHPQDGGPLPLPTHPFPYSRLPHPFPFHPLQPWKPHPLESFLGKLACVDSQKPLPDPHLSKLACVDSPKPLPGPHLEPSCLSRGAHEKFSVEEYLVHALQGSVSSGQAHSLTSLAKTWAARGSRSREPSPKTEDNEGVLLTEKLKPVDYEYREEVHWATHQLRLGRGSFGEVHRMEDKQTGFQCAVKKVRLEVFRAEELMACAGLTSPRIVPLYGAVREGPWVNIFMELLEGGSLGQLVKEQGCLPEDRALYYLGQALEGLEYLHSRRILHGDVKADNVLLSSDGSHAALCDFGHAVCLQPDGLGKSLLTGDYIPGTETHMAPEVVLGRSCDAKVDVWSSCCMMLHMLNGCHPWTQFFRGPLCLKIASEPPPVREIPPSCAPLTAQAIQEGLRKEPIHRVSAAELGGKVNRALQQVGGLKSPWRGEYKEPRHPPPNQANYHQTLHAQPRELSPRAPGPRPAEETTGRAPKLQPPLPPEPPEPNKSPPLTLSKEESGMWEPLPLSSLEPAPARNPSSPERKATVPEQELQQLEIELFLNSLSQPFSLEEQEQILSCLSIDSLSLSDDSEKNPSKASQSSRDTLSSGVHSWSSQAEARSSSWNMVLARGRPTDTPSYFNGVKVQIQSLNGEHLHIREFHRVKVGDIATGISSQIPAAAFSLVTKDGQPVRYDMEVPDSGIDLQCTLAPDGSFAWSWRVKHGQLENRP

Tests used:
[1] = target: T1, HIS-SIVA2 (human SIVA2 in pcDNA3.1-HIS) (human) (UniProt O15304); experiment: co-immunoprecipitation from transfected HEK293 cells
T1 sequence: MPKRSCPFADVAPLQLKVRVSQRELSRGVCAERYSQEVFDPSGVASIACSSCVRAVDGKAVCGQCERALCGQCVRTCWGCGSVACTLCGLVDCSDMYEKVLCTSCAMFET

[2] = target: T2, HIS-SIVA1 (human SIVA1 in pcDNA3.1-HIS) (human) (UniProt O15304); experiment: as above
T2 sequence: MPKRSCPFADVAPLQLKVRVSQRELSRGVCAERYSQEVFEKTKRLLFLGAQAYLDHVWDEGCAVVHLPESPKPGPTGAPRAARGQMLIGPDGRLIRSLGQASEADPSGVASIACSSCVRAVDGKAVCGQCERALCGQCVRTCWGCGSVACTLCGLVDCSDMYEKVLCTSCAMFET

[3] = target: T1, HIS-SIVA2 (human SIVA2 in pcDNA3.1-HIS) (human); experiment: summary of yeast two-hybrid and co-immunoprecipitation
[4] = target: T2, HIS-SIVA1 (human SIVA1 in pcDNA3.1-HIS) (human); experiment: as above
[5] = target: T1, HIS-SIVA2 (human SIVA2 in pcDNA3.1-HIS) (human); experiment: co-immunoprecipitation (anti-HIS and anti-myc) from transfected HEK293T cells
[6] = target: T2, HIS-SIVA1 (human SIVA1 in pcDNA3.1-HIS) (human); experiment: as above

Measured: binding

myc-NIK (NIK N-terminally fused to the myc tag) (from UniProt Q99558 1-947) (enzyme)
binds: all assays above
